Source: PubChem BioAssay AID1053133 (Broad Institute, 2014).

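Vaccinia-infected cells with a two-color viral stage reporter; Venus fluorescence read on a plate reader; the cell line is not named here; timing not stated here.
The test concentration is not given here.
Percent change in Venus reporter signal; lower (more negative) values mean stronger inhibition of that viral stage.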

Values are in %.
The controls that fix the scale are not given here.
Common to all entries: measured here: Venus reporter, other viral stage.
This is a side read-out of the assay, for part of the compounds, not drawn at random.

Compound,activity change (Venus) (%)
C[C@H]1CN([C@@H](C)CO)C(=O)c2cc(NC(=O)Nc3ccc(C(F)(F)F)cc3)ccc2O[C@H]1CN(C)Cc1ccc(-c2ccccc2)cc1,-36.63
COc1ccc(S(=O)(=O)N(C)C[C@H]2Oc3ccc(NC(=O)NC4CCCCC4)cc3C(=O)N([C@H](C)CO)C[C@H]2C)cc1,-30.81
C[C@@H]1CN([C@H](C)CO)C(=O)c2cccc(NC(=O)Nc3cccc4ccccc34)c2O[C@@H]1CN(C)C(=O)NC1CCCCC1,-39.76
C[C@@H](NC(=O)N(C)C[C@H]1OCc2ccccc2-c2c(n(C)c3ccccc23)C(=O)N([C@@H](C)CO)C[C@@H]1C)c1ccccc1,-40.1
Cc1ccc(-c2ccc([C@@H]3[C@@H](CO)N4CCCCN(C(=O)Nc5ccccc5)C[C@@H]34)cc2)cc1,-36.14
CCCNC(=O)N1[C@H](C#N)[C@@H](c2ccc(-c3ccccc3F)cc2)[C@@H]1CO,-33.39
Cc1ccc(S(=O)(=O)N(C)C[C@@H]2OCCCC[C@@H](C)Oc3ccc(NS(=O)(=O)c4c(C)noc4C)cc3C(=O)N([C@H](C)CO)C[C@H]2C)cc1,-50.2
C[C@H](CO)N1C[C@H](C)[C@H](CN(C)C(=O)NC2CCCCC2)Oc2ncc(-c3cc4ccccc4o3)cc2C1=O,-28.35
CC(C)CC#Cc1ccc2c(c1)O[C@@H](CN(C)Cc1ccccc1F)[C@@H](C)CN([C@@H](C)CO)S2(=O)=O,-46.99
C[C@@H]1CN([C@@H](C)CO)S(=O)(=O)c2ccc(C3=CCCCC3)cc2O[C@H]1CN(C)C(=O)Nc1ccc2c(c1)OCO2,-37.99
CCCNC(=O)N1CC2(CCN(CC3CCCC3)CC2)c2c(n(C)c3cc(OC)ccc23)[C@@H]1CO,-30.68
C[C@H](CO)N1C[C@H](C)[C@H](CN(C)Cc2ccc(Cl)c(Cl)c2)Oc2c(NC(=O)CCCCCC(=O)Nc3ccccc3N)cccc2C1=O,-75.29
C[C@H]1CCCCO[C@@H](CN(C)Cc2ccc3c(c2)OCO3)[C@@H](C)CN([C@@H](C)CO)C(=O)c2cc(NC(=O)c3ccccc3)ccc2O1,-38.33
C[C@@H]1CCCCO[C@@H](CN(C)S(=O)(=O)c2ccc(Cl)cc2)[C@H](C)CN([C@H](C)CO)C(=O)c2cc(NS(C)(=O)=O)ccc2O1,-30.8
COc1ccccc1NC(=O)N1CCCCN2[C@@H](CO)[C@H](c3ccc(C#CC4CC4)cc3)[C@@H]2C1,-45.87
C(=C\c1ccc(C2[C@@H]3CN(Cc4cccnc4)C[C@H]2N3)cc1)/c1ccccc1 (stereo partly specified),-33.87
COc1ccc(S(=O)(=O)Nc2ccc3c(c2)C(=O)N([C@@H](C)CO)C[C@H](C)[C@@H](CN(C)S(=O)(=O)c2c(C)noc2C)OCCCC[C@@H](C)O3)cc1,-33.98
COc1ccccc1C#Cc1ccc([C@@H]2[C@@H](CO)N3CCCCN(C(=O)C4CCC4)C[C@@H]23)cc1,-37.2
Cc1ccc(S(=O)(=O)Nc2ccc3c(c2)C(=O)N([C@@H](C)CO)C[C@H](C)[C@@H](CN(C)C(=O)Cc2ccccc2)OCCCC[C@H](C)O3)cc1,-31.9
CC(C)(C)[S@](=O)N1Cc2cc(C(=O)NC3CCCCC3)nc(-c3cccc(Br)c3)c2[C@@H]1CCO,-6.749
C[C@@H]1CN([C@H](C)CO)S(=O)(=O)c2ccc(-c3ccncc3)cc2O[C@@H]1CN(C)Cc1ccc(Oc2ccccc2)cc1,-31.77
C[C@H](CO)N1C[C@H](C)[C@H](CN(C)Cc2ccc(Cl)c(Cl)c2)Oc2c(NS(=O)(=O)c3ccccc3)cccc2C1=O,-41.91
C[C@H]1CN([C@@H](C)CO)C(=O)c2cc(C#CC3CCCCC3)cnc2O[C@H]1CN(C)C(=O)Nc1ccccc1,-48.65
Cc1ccc(S(=O)(=O)N(C)C[C@H]2OCc3ccccc3-c3c(n(C)c4ccccc34)C(=O)N([C@@H](C)CO)C[C@H]2C)cc1,-43.14
COc1ccc(OC(=O)N(C)C[C@@H]2OCc3ccccc3-c3c(n(C)c4ccccc34)C(=O)N([C@@H](C)CO)C[C@@H]2C)cc1,-55.07
C[C@H](CO)N1C[C@H](C)[C@@H](CN(C)S(=O)(=O)c2cccc(F)c2)Oc2ncc(C#CC3CCCCC3)cc2C1=O,-42.76
C[C@@H]1CN([C@@H](C)CO)C(=O)c2cc(-c3ccncc3)cnc2O[C@H]1CN(C)Cc1ccc(Oc2ccccc2)cc1,-52.59
COc1ccc([Si](C)(C)[C@@H]2[C@@H](CCn3cc(CCO)nn3)O[C@]3(C(=O)N(Cc4ccc(N5CCC5=O)cc4)c4ccccc43)[C@H]2C)cc1,-59.51
C[C@@H]1CN([C@@H](C)CO)C(=O)c2cc(C#Cc3ccccc3)cnc2O[C@@H]1CN(C)CC1CCOCC1,-17.38
C[C@@H]1CCCCO[C@H](CN(C)C(=O)Nc2ccc(F)cc2)[C@@H](C)CN([C@@H](C)CO)C(=O)c2cc(NS(=O)(=O)c3ccccc3)ccc2O1,-41.9
O=C(Nc1cccc(F)c1)N1CCCCN2[C@H](CO)[C@@H](c3ccc(C#CC4CC4)cc3)[C@H]2C1,-69.05
O=C(c1cccc(F)c1)N1CCCCN2[C@H](C1)[C@@H](c1ccc(/C=C/c3ccccc3)cc1)[C@@H]2CO,-52.35
CNC(=O)C[C@@H]1CC[C@@H]2[C@H](COC[C@@H](O)CN2C(=O)Nc2ccc(Cl)c(Cl)c2)O1,-35.28
Cc1ccc(S(=O)(=O)N(C)C[C@@H]2OCCCC[C@@H](C)Oc3ccc(NS(=O)(=O)c4ccc(Cl)cc4)cc3C(=O)N([C@@H](C)CO)C[C@H]2C)cc1,-32.24
C[C@@H]1CN([C@H](C)CO)C(=O)c2c(c3ccccc3n2C)-c2ccccc2CO[C@H]1CN(C)Cc1ccc2c(c1)OCCN2C,-30.73
CC(C)NC(=O)Nc1cccc2c1O[C@H](CN(C)Cc1ccc(Cl)c(Cl)c1)[C@@H](C)CN([C@@H](C)CO)C2=O,-38.82
Cc1ccc(S(=O)(=O)N(C)C[C@H]2OCCCC[C@H](C)Oc3ccc(NS(=O)(=O)c4ccccc4)cc3C(=O)N([C@@H](C)CO)C[C@@H]2C)cc1,-43.13
COc1ccc2c3c(n(C)c2c1)[C@@H](CO)N(S(=O)(=O)c1ccc(C)cc1)CC31CCN(C)CC1,-27.61
O=C(Nc1ccccc1)N1CC(=O)N2[C@H](CO)[C@@H](c3ccc(C#CC4CC4)cc3)[C@H]2C1,-40.51
C[C@@H]1CN([C@H](C)CO)C(=O)c2cccc(NC(=O)CCCCCC(=O)Nc3ccccc3N)c2O[C@H]1CN(C)Cc1ccccc1,-45.01
O=C(C[C@H]1CC[C@@H]2[C@H](COC[C@H](O)CN2C(=O)Nc2ccc(C(F)(F)F)cc2)O1)NCC1CCCCC1,-43.07
COc1ccc(C#Cc2ccc([C@@H]3[C@H]4CN(C(=O)Cc5ccccc5)CCCCN4[C@H]3CO)cc2)cc1,-32.57
O=C(Nc1cc(F)ccc1F)N1CCCCN2[C@H](CO)[C@@H](c3ccc(-c4ccccc4)cc3)[C@@H]2C1,-39.75
C[C@@H]1CCCCO[C@@H](CN(C)CC2CCCCC2)[C@H](C)CN([C@@H](C)CO)C(=O)c2cc(NC(=O)C3CCCCC3)ccc2O1,-53.06
C[C@H]1CCCCO[C@H](CN(C)Cc2ccccc2)[C@@H](C)CN([C@@H](C)CO)C(=O)c2cc(NC(=O)Nc3ccc(C(F)(F)F)cc3)ccc2O1,-31.72
Cc1ccc(S(=O)(=O)Nc2ccc3c(c2)C(=O)N([C@H](C)CO)C[C@@H](C)[C@H](CN(C)C(=O)NC2CCCCC2)OCCCC[C@H](C)O3)cc1,-33.81
C[C@H]1CN([C@@H](C)CO)C(=O)c2cccc(NC(=O)CCCCCC(=O)Nc3ccccc3N)c2O[C@@H]1CN(C)Cc1ccc(Cl)c(Cl)c1,-39.8

Repeated from the top, 3 entries:

{"compound": "C[C@H]1CN([C@@H](C)CO)C(=O)c2cc(NC(=O)Nc3ccc(C(F)(F)F)cc3)ccc2O[C@H]1CN(C)Cc1ccc(-c2ccccc2)cc1", "activity change (Venus) (%)": "-36.63"}
{"compound": "COc1ccc(S(=O)(=O)N(C)C[C@H]2Oc3ccc(NC(=O)NC4CCCCC4)cc3C(=O)N([C@H](C)CO)C[C@H]2C)cc1", "activity change (Venus) (%)": "-30.81"}
{"compound": "C[C@@H]1CN([C@H](C)CO)C(=O)c2cccc(NC(=O)Nc3cccc4ccccc34)c2O[C@@H]1CN(C)C(=O)NC1CCCCC1", "activity change (Venus) (%)": "-39.76"}